Measured values taken from US6833256.
These are yes or no findings as the source states them, for the method shown. Some results given as binding are weak or reduced against the parent protein; the word gives no strength. One block for each binder: values may come before it.

Tests used:
[1] = biological target: T1, common type I IFN receptor on Madin Darby bovine kidney (MDBK) cells (bovine (MDBK cells)) (UniProt Q04790+Q95141); assay: competitive displacement of 3 nM 125I-ovIFN-tau1mod from MDBK cells by 300 nM unlabeled IFN; compared with human IFN-alphaA
T1 sequence (looked up) 1: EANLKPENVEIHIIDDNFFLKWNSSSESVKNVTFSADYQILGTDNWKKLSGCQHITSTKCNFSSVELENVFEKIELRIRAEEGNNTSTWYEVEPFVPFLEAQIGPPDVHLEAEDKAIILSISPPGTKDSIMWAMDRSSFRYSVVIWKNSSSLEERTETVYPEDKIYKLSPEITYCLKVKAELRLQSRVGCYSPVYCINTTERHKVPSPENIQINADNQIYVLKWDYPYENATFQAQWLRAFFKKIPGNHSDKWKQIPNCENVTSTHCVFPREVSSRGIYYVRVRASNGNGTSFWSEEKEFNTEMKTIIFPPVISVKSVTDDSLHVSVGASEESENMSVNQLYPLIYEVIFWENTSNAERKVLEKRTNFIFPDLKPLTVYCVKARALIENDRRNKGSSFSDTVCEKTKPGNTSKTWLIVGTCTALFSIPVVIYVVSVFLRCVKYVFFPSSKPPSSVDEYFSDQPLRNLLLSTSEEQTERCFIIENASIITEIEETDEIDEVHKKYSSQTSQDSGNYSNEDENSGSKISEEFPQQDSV
T1 sequence (looked up) 2: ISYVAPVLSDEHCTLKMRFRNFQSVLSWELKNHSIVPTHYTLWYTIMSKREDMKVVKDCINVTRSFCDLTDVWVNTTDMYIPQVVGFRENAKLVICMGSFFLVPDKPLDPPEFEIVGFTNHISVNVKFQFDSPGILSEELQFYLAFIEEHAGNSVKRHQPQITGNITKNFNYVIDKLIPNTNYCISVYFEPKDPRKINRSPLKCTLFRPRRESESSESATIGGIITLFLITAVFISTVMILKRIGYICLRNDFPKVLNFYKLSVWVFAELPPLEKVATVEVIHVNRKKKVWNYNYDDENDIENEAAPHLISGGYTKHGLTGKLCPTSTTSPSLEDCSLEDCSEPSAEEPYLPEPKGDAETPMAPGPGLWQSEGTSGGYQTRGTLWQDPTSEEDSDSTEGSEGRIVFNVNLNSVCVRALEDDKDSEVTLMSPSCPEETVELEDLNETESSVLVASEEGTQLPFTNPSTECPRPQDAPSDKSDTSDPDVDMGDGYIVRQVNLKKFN

[2] = biological target: T1, common type I IFN receptor on Madin Darby bovine kidney (MDBK) cells (bovine (MDBK cells)); assay: competitive displacement of 125I-ovIFN-tau1mod from MDBK cells; relative to the parental IFN-tau
[3] = biological target: T1, common type I IFN receptor on Madin Darby bovine kidney (MDBK) cells (bovine (MDBK cells)); assay: competitive displacement of 3 nM 125I-ovIFN-tau1mod from MDBK cells by 300 nM unlabeled IFN; still not to the same extent as human IFN-alphaA
[4] = biological target: T1, common type I IFN receptor on Madin Darby bovine kidney (MDBK) cells (bovine (MDBK cells)); assay: competitive displacement of 3 nM 125I-ovIFN-tau1mod from MDBK cells by 300 nM unlabeled IFN
[5] = biological target: T1, common type I IFN receptor on Madin Darby bovine kidney (MDBK) cells (bovine (MDBK cells)); assay: competitive displacement of 125I-ovIFN-tau1mod from MDBK cells

binding [2]: binds | binding [3]: binds
B2: IFN-tau 26 P:L mutant (ligand)
chain: CYLSRKLMLDARENLKLLDRMNRLSLHSCLQDRKDFGLPQEMVEGDQLQKDQAFPVLYEMLQQSFNLFYTEHSSAAWDTTLLEQLCTGLQQQLDHLDTCRGQGMGEEDSELGNMDPIVTVKKYFQGIYDYLQEKGYSDCAWEIVRVEMMRALTVSTTLQKRLTKMGGDLNSP

binding [4]: binds
B5: IFN-tau 24 L:I mutant (ligand)
chain: CYLSRKLMLDARENLKLLDRMNRISPHSCLQDRKDFGLPQEMVEGDQLQKDQAFPVLYEMLQQSFNLFYTEHSSAAWDTTLLEQLCTGLQQQLDHLDTCRGQGMGEEDSELGNMDPIVTVKKYFQGIYDYLQEKGYSDCAWEIVRVEMMRALTVSTTLQKRLTKMGGDLNSP

Further lines, the binder ahead of its results:

B1: ovine IFN-tau1mod (native ovine interferon-tau isoform 1mod) (ligand)
chain: CYLSRKLMLDARENLKLLDRMNRLSPHSCLQDRKDFGLPQEMVEGDQLQKDQAFPVLYEMLQQSFNLFYTEHSSAAWDTTLLEQLCTGLQQQLDHLDTCRGQGMGEEDSELGNMDPIVTVKKYFQGIYDYLQEKGYSDCAWEIVRVEMMRALTVSTTLQKRLTKMGGDLNSP
binding [1]: binds

B3: IFN-tau 34 K:H mutant (ligand)
chain: CYLSRKLMLDARENLKLLDRMNRLSPHSCLQDRHDFGLPQEMVEGDQLQKDQAFPVLYEMLQQSFNLFYTEHSSAAWDTTLLEQLCTGLQQQLDHLDTCRGQGMGEEDSELGNMDPIVTVKKYFQGIYDYLQEKGYSDCAWEIVRVEMMRALTVSTTLQKRLTKMGGDLNSP
binding [4]: binds

B4: IFN-tau 13 E:R mutant (ligand)
chain: CYLSRKLMLDARRNLKLLDRMNRLSPHSCLQDRKDFGLPQEMVEGDQLQKDQAFPVLYEMLQQSFNLFYTEHSSAAWDTTLLEQLCTGLQQQLDHLDTCRGQGMGEEDSELGNMDPIVTVKKYFQGIYDYLQEKGYSDCAWEIVRVEMMRALTVSTTLQKRLTKMGGDLNSP
binding [5]: binds
